# In PubChem BioAssay AID651640 (Broad Institute, 2012):
# Screen size: about 350,000 compounds; about 6,000 (1.7%) were called active. This list was built around the results that the source calls inconclusive (neither active nor inactive); the mix of calls is not that of the screen. Cut-off read from the data, not from the text of the source: active = CPE inhibition above about 20% (passing the limit was not always enough); inconclusive = no clear call, values can overlap the other calls; tested in BHK-21 cells.
# Assay: protection of cells from dengue 2 killing – plate reader, single concentration, primary screen (AID 651640);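 note: 0% = median of neutral control wells and 100% = median of positive control wells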
# Details: DENV2-infected cells, cytopathic effect rescue, at 9.99 µM, stronger effect = higher value
row,Structure (SMILES),CPE inhibition
1,COC(=O)C[C@@H]1CC[C@H]2[C@@H](COc3ccc(NC(=O)c4cscn4)cc3C(=O)N2C)O1,inconclusive: 24.3%
2,CC(C)C[C@H]1CN(CCCC[C@@H]2CNC(=O)C(=O)N2CCc2ccccc2)C(=O)C(=O)N1CCc1ccc(O)cc1,inconclusive: 83.4%
3,CC(=O)Oc1cccc(C2=CC(=O)CC(C)(C)C2=O)c1,active: 21.6%
4,CCOc1ccc(OCc2ccc(C(=O)Nc3cccnc3)cc2)cc1,inconclusive: 41.6%
5,Cc1ccc(S(=O)(=O)N2CCN(C(=O)COC(=O)COc3ccccc3C(C)C)CC2)c(C)c1,inconclusive: 30%
6,Cc1cc(NC(=O)c2cccc(S(=O)(=O)Nc3cccc(C(=O)O)c3)c2)no1,inconclusive: 28%
7,O=C(NCc1ccccc1C(F)(F)F)C12CN(Cc3ccccc3)CC1C(c1ccc([N+](=O)[O-])cc1)=NO2 (stereo not given),inconclusive: 66.8%
8,O=C(N[C@H]1CC[C@@H](CCNC(=O)C2CCOCC2)O[C@@H]1CO)c1ccncc1,inactive: 3.19%
9,COc1ccc(NC(=O)N(C)C[C@@H]2Oc3c(NC(=O)Nc4cccc5ccccc45)cccc3C(=O)N([C@@H](C)CO)C[C@H]2C)cc1,active: 23.2%
10,O=C(O)C[C@H]1CC[C@H](NC(=O)c2ccncc2)[C@H](CO)O1,inconclusive: 23.8%
11,COC(=O)c1ccc(Nc2ncnc3c2cnn3-c2cccc(C)c2)cc1,inconclusive: 65.5%
12,COc1ccccc1-c1cnc2c(c1)C(=O)N([C@@H](C)CO)C[C@H](C)[C@H](CN(C)C)O2,inconclusive: 79.6%
13,Cc1noc(C)c1NC(=O)Nc1ccc2c(c1)C(=O)N([C@@H](C)CO)C[C@H](C)[C@@H](CN(C)S(=O)(=O)c1ccc(F)cc1)O2,inconclusive: 61.8%
14,CCOC(=O)CN1C(=O)CC(c2ccccc2)C1=O (stereo not given),inconclusive: 21.5%
15,Cc1ccc(S(=O)(=O)Nc2ccc3c(c2)C(=O)N([C@@H](C)CO)C[C@@H](C)[C@@H](CN(C)C(=O)NC(C)C)OCCCC[C@@H](C)O3)cc1,inactive: 0.0275%
16,O=C(c1ccccc1F)N1C[C@@H]2[C@H](c3ccccc31)[C@@H](CO)N2C(=O)c1ccccc1,inactive: 9.79%
17,NS(=O)(=O)c1ccc(NC(=S)N2CCCC2)cc1,inconclusive: 20.3%
18,CC1CCN(CC(O)COc2ccc(-c3ccccc3)cc2)CC1 (stereo not given),inconclusive: 22.4%
19,CCOC(=O)CCc1c(C)c2c(C)nn(-c3ccccc3)c2[nH]c1=O,active: 37.4%
20,NC(=O)c1ccccc1NC(=O)COC(=O)C1(c2ccccc2)CC1,active: 32.4%
21,Cn1c(SCC(=O)Nc2ccc3c(c2)CCC3)nnc1C1CC1,inconclusive: 61.8%
22,COc1cccc(C(=O)Nc2ccc3c(c2)OC[C@@H](C)N(C(C)=O)C[C@@H](C)[C@H](OC)CN(C)C3=O)c1,inconclusive: 22%
23,CS(=O)(=O)N1[C@H](C(=O)NCC2CC2)[C@@H](CO)[C@@H]2Cn3c(ccc(-c4ccccc4F)c3=O)[C@@H]21,inactive: -8.24%
24,COc1cc(Cl)c(CN2CCC(CCC(=O)NC3CC3)CC2)cc1OC,inconclusive: 86.8%

# Reprinted from above for reference:
row,Structure (SMILES),CPE inhibition
12,COc1ccccc1-c1cnc2c(c1)C(=O)N([C@@H](C)CO)C[C@H](C)[C@H](CN(C)C)O2,inconclusive: 79.6%
13,Cc1noc(C)c1NC(=O)Nc1ccc2c(c1)C(=O)N([C@@H](C)CO)C[C@H](C)[C@@H](CN(C)S(=O)(=O)c1ccc(F)cc1)O2,inconclusive: 61.8%

# Rewritten with bars between the fields: entries from further up.
row | Structure (SMILES) | CPE inhibition
14 | CCOC(=O)CN1C(=O)CC(c2ccccc2)C1=O (stereo not given) | inconclusive: 21.5%
15 | Cc1ccc(S(=O)(=O)Nc2ccc3c(c2)C(=O)N([C@@H](C)CO)C[C@@H](C)[C@@H](CN(C)C(=O)NC(C)C)OCCCC[C@@H](C)O3)cc1 | inactive: 0.0275%

# (list continues)

row,Structure (SMILES),CPE inhibition
1,CCCCn1c(-c2cccc(Br)c2)nc2cc3[nH]c(=O)c(C(C)C)nc3cc21,inconclusive: 63.2%
2,CNC[C@@H]1Oc2ccc(NC(=O)Nc3ccccc3)cc2CC(=O)N([C@@H](C)CO)C[C@H]1C,inconclusive: 22.2%
3,Cc1onc(-c2c(F)cccc2Cl)c1C(=O)NCc1ccc2c(c1)OCO2,inconclusive: 20.6%
4,CC(C)C#Cc1ccc2c(c1)O[C@@H](CN(C)Cc1cncnc1)[C@H](C)CN([C@H](C)CO)S2(=O)=O,inconclusive: 33.1%
5,Cc1ccc(OCC(=O)N(Cc2ccco2)C2CCS(=O)(=O)C2)cc1 (stereo not given),inactive: 8.81%
6,COc1ccc(/C=N/NC(=O)c2ccccc2O)cc1CN1CCOCC1,inconclusive: 21.3%
7,C/C=C/c1cnc2c(c1)C(=O)N([C@@H](C)CO)C[C@@H](C)[C@H](CN(C)Cc1ccc(F)cc1)O2,inconclusive: 49.1%
8,NC(=O)c1nsc(C(=O)N(Cc2ccc(F)cc2)C(C(=O)NC2CCCC2)c2ccco2)c1N (stereo not given),inconclusive: 35.6%
9,CC(=O)c1sc(Nc2ccc(C)cc2)nc1C,inconclusive: 23%
10,CN(C)CC(=O)N[C@@H]1C[C@@H]2O[C@@H](CO)CC[C@@H]2O[C@@H]1CCc1ccc(-c2ccc(F)cc2)cc1,inconclusive: 46.1%
11,COc1ccc(CNC(=O)C2(C)Cc3c(-c4ccc5c(c4)OCO5)ccnc3O2)cc1OC (stereo not given),inconclusive: 35.8%
12,C[C@@H]1CN([C@@H](C)CO)C(=O)Cc2cc(NC(=O)Nc3ccc(F)cc3)ccc2O[C@H]1CN(C)C(=O)Nc1ccc(C(F)(F)F)cc1,inactive: -5.79%
13,O=C(C[C@@H]1C[C@@H]2c3cc(NC(=O)NC4CCCCC4)ccc3O[C@@H]2[C@H](CO)O1)NCc1ccncc1,inactive: 14.8%
14,C[C@@H]1CN([C@H](C)CO)C(=O)c2cccc(NS(=O)(=O)c3ccc(F)cc3)c2O[C@@H]1CN(C)S(C)(=O)=O,inconclusive: 33.5%
15,C[C@H](CO)N1C[C@H](C)[C@H](CN(C)CC2CC2)Oc2ccc(NC(=O)c3ccncc3)cc2CC1=O,inactive: -5.16%
16,Cc1noc(C)c1NC(=O)Nc1cccc2c1O[C@@H](CN(C)Cc1ccc(Oc3ccccc3)cc1)[C@@H](C)CN([C@@H](C)CO)C2=O,inactive: -4.89%
17,O=C(COC(=O)CNC(=O)c1cccc(OC(F)F)c1)NCc1ccc2c(c1)OCO2,inconclusive: 21.9%
18,C[C@H]1CN([C@@H](C)CO)C(=O)c2cccc(NC(=O)c3ccncc3)c2O[C@H]1CN(C)C(=O)Nc1ccc(C(F)(F)F)cc1,inactive: 4.72%
19,C[C@@H]1CN([C@H](C)CO)C(=O)c2cc(NC(=O)Nc3ccc(C(F)(F)F)cc3)ccc2O[C@@H](C)CCCCO[C@H]1CN(C)C(=O)NC1CCCCC1,inactive: -4.03%
20,COc1ccc(COc2cc(-c3cccc(OC)c3)nc3ccc(NC(=O)c4ccccc4)cc23)cc1,inconclusive: 38.1%
21,O=C(N/N=C1/CCc2ccccc21)C1CC1,inconclusive: 28.4%
22,Cc1n[nH]c(=O)c2c(NC(=O)CSc3nnnn3-c3ccccc3)oc(C)c12,inconclusive: 21.3%
23,CN1C(=O)c2cc(NC(=O)c3cccc(F)c3)ccc2OC[C@H]2O[C@H](CC(=O)N3CCc4ccccc4C3)CC[C@@H]21,active: 78%
24,CSCCC(NS(=O)(=O)c1ccc(C)cc1)C(=O)N1CCN(C(c2ccccc2)c2ccccc2)CC1 (stereo not given),inconclusive: 31.6%

row,Structure (SMILES),CPE inhibition
1,Cc1noc(C)c1S(=O)(=O)Nc1ccc2c(c1)C(=O)N([C@@H](C)CO)C[C@@H](C)[C@H](CN(C)Cc1ccc(C(=O)O)cc1)OCCCC[C@H](C)O2,active: 24.5%
2,C[C@H](CO)N1C[C@H](C)[C@H](CN(C)S(=O)(=O)c2ccc(Cl)cc2)OCCCC[C@H](C)Oc2ccc(N(C)C)cc2C1=O,inconclusive: 30.7%
3,CCC(c1nnc(SCC(=O)NNC(=O)c2ccccc2)n1Cc1ccccc1)N(C)C (stereo not given),inconclusive: 47.3%
4,O=C(NP(=O)(N1CCCC1)N1CCCC1)C1=C(N2CCOCC2)/C(=C/c2cccc([N+](=O)[O-])c2)CC1,inactive: -4.3%
5,N[C@@H](Cc1ccc(O)cc1)c1nnc([C@H](CCC(=O)O)NC(=O)C2CCNCC2)o1,inconclusive: 56.9%
6,CCCCc1nc2cc(C(=O)NCc3cc(C)n(C)n3)ccc2o1,inconclusive: 21.5%
7,Cn1c(C=O)c(-c2ccc3cc[nH]c3c2)c2ccccc21,inconclusive: 21.5%
8,CCNC(=O)C[C@H]1CC[C@@H]2[C@H](COc3ccc(NC(=O)Nc4c(C)noc4C)cc3C(=O)N2C)O1,inactive: 17.9%
9,O=C(O)Cn1c(Cc2ccccc2)nc2ccccc21,inconclusive: 20.9%
10,C=C(C)C(=O)Nc1ccc2c(c1)OCCOCCOCCO2,inconclusive: 25.8%
11,COc1ccc(S(=O)(=O)Nc2cccc3c2O[C@H](CN(C)S(=O)(=O)c2ccc(OC)cc2)[C@@H](C)CN([C@H](C)CO)C3=O)cc1,active: 21.2%
12,CCC(=O)N(C)C[C@H]1Oc2cc(C#CCN(C)C)ccc2S(=O)(=O)N([C@H](C)CO)C[C@@H]1C,inactive: 2.02%
13,CC(C)(O)C#Cc1ccc([C@@H]2[C@@H](CO)N3CCCCN(C(=O)c4ccc(F)cc4)C[C@H]23)cc1,inconclusive: 21.4%
14,CC(=O)c1cccc(NC(=O)CSc2ccc(-c3cccnc3)nn2)c1,inconclusive: 37.4%
15,Cc1cn([C@H]2C[C@H](O)[C@@H](CNC(=O)[C@H](N)Cc3cscn3)O2)c(=O)[nH]c1=O,inconclusive: 27.8%
16,CO[C@H]1CN(C)C(=O)c2cc(NC(=O)C3CCC3)ccc2OC[C@@H](C)N(Cc2ccncc2)C[C@@H]1C,active: 52%
17,Cc1c(Cl)sn(-c2ccc(Cl)cc2)c1=O,inactive: -2.75%
18,O=C(C[C@H]1C[C@@H]2c3cc(NC(=O)c4ccc5c(c4)OCO5)ccc3O[C@@H]2[C@@H](CO)O1)NCc1ccccn1,inactive: -1.6%
19,C[C@H](CO)N1C[C@H](C)[C@H](CN(C)Cc2ccc(F)cc2)Oc2ncc(Br)cc2C1=O,inconclusive: 31.6%
20,C/C=C/c1ccc([C@@H]2[C@H](C#N)N(C(=O)NC3CCCCC3)[C@H]2CO)cc1,active: 77.4%
21,O=C(C[C@H]1CC[C@@H](NS(=O)(=O)c2cccc(F)c2)[C@H](CO)O1)N1CCCCC1,active: 25.4%
22,CCCCCNCc1ccc(OCc2ccc(Cl)nc2)c(OC)c1,active: 31.4%
